In patent US9284543B2, “Neutral active soluble truncated PH20 polypeptides and uses thereof” (Halozyme, Inc., priority 2008, dated 2016):

B1: SPAM1-DGVC: C-terminally truncated human PH20, precursor 464 aa (SEQ ID NO:36), mature 429 aa (SEQ ID NO:88) (protein, listed as Homo sapiens)
chain 1: MGVLKFKHIFFRSFVKSSGVSQIVFTFLLIPCCLTLNFRAPPVIPNVPFLWAWNAPSEFCLGKFDEPLDMSLFSFIGSPRINATGQGVTIFYVDRLGYYPYIDSITGVTVNGGIPQKISLQDHLDKAKKDITFYMPVDNLGMAVIDWEEWRPTWARNWKPKDVYKNRSIELVQQQNVQLSLTEATEKAKQEFEKAGKDFLVETIKLGKLLRPNHLWGYYLFPDCYNHHYKKPGYNGSCFNVEIKRNDDLSWLWNESTALYPSIYLNTQQSPVAATLYVRNRVREAIRVSKIPDAKSPLPVFAYTRIVFTDQVLKFLSQDELVYTFGETVALGASGIVIWGTLSIMRSMKSCLLLDNYMETILNPYIINVTLAAKMCSQVLCQEQGVCIRKNWNSSDYLHLNPDNFAIQLEKGGKFTVRGKPTLEDLEQFSEKFYCSCYSTLSCKEKADVKDTDAVDVCIADGVC
chain 2: LNFRAPPVIPNVPFLWAWNAPSEFCLGKFDEPLDMSLFSFIGSPRINATGQGVTIFYVDRLGYYPYIDSITGVTVNGGIPQKISLQDHLDKAKKDITFYMPVDNLGMAVIDWEEWRPTWARNWKPKDVYKNRSIELVQQQNVQLSLTEATEKAKQEFEKAGKDFLVETIKLGKLLRPNHLWGYYLFPDCYNHHYKKPGYNGSCFNVEIKRNDDLSWLWNESTALYPSIYLNTQQSPVAATLYVRNRVREAIRVSKIPDAKSPLPVFAYTRIVFTDQVLKFLSQDELVYTFGETVALGASGIVIWGTLSIMRSMKSCLLLDNYMETILNPYIINVTLAAKMCSQVLCQEQGVCIRKNWNSSDYLHLNPDNFAIQLEKGGKFTVRGKPTLEDLEQFSEKFYCSCYSTLSCKEKADVKDTDAVDVCIADGVC
modifications: HuPH20 precursor 1-464; Mature HuPH20 36-464
B2: SPAM1-SSVA: C-terminally truncated human PH20, precursor 507 aa (SEQ ID NO:3), mature 472 aa (SEQ ID NO:55) (protein, listed as Homo sapiens)
chain 1: MGVLKFKHIFFRSFVKSSGVSQIVFTFLLIPCCLTLNFRAPPVIPNVPFLWAWNAPSEFCLGKFDEPLDMSLFSFIGSPRINATGQGVTIFYVDRLGYYPYIDSITGVTVNGGIPQKISLQDHLDKAKKDITFYMPVDNLGMAVIDWEEWRPTWARNWKPKDVYKNRSIELVQQQNVQLSLTEATEKAKQEFEKAGKDFLVETIKLGKLLRPNHLWGYYLFPDCYNHHYKKPGYNGSCFNVEIKRNDDLSWLWNESTALYPSIYLNTQQSPVAATLYVRNRVREAIRVSKIPDAKSPLPVFAYTRIVFTDQVLKFLSQDELVYTFGETVALGASGIVIWGTLSIMRSMKSCLLLDNYMETILNPYIINVTLAAKMCSQVLCQEQGVCIRKNWNSSDYLHLNPDNFAIQLEKGGKFTVRGKPTLEDLEQFSEKFYCSCYSTLSCKEKADVKDTDAVDVCIADGVCIDAFLKPPMETEEPQIFYNASPSTLSATMFIVSILFLIISSVA
chain 2: LNFRAPPVIPNVPFLWAWNAPSEFCLGKFDEPLDMSLFSFIGSPRINATGQGVTIFYVDRLGYYPYIDSITGVTVNGGIPQKISLQDHLDKAKKDITFYMPVDNLGMAVIDWEEWRPTWARNWKPKDVYKNRSIELVQQQNVQLSLTEATEKAKQEFEKAGKDFLVETIKLGKLLRPNHLWGYYLFPDCYNHHYKKPGYNGSCFNVEIKRNDDLSWLWNESTALYPSIYLNTQQSPVAATLYVRNRVREAIRVSKIPDAKSPLPVFAYTRIVFTDQVLKFLSQDELVYTFGETVALGASGIVIWGTLSIMRSMKSCLLLDNYMETILNPYIINVTLAAKMCSQVLCQEQGVCIRKNWNSSDYLHLNPDNFAIQLEKGGKFTVRGKPTLEDLEQFSEKFYCSCYSTLSCKEKADVKDTDAVDVCIADGVCIDAFLKPPMETEEPQIFYNASPSTLSATMFIVSILFLIISSVA
modifications: HuPH20 precursor 1-507; mature HuPH20 36-507
B3: SPAM1-IADG: C-terminally truncated human PH20, precursor 462 aa (SEQ ID NO:37), mature 427 aa (SEQ ID NO:89) (protein, listed as Homo sapiens)
chain 1: MGVLKFKHIFFRSFVKSSGVSQIVFTFLLIPCCLTLNFRAPPVIPNVPFLWAWNAPSEFCLGKFDEPLDMSLFSFIGSPRINATGQGVTIFYVDRLGYYPYIDSITGVTVNGGIPQKISLQDHLDKAKKDITFYMPVDNLGMAVIDWEEWRPTWARNWKPKDVYKNRSIELVQQQNVQLSLTEATEKAKQEFEKAGKDFLVETIKLGKLLRPNHLWGYYLFPDCYNHHYKKPGYNGSCFNVEIKRNDDLSWLWNESTALYPSIYLNTQQSPVAATLYVRNRVREAIRVSKIPDAKSPLPVFAYTRIVFTDQVLKFLSQDELVYTFGETVALGASGIVIWGTLSIMRSMKSCLLLDNYMETILNPYIINVTLAAKMCSQVLCQEQGVCIRKNWNSSDYLHLNPDNFAIQLEKGGKFTVRGKPTLEDLEQFSEKFYCSCYSTLSCKEKADVKDTDAVDVCIADG
chain 2: LNFRAPPVIPNVPFLWAWNAPSEFCLGKFDEPLDMSLFSFIGSPRINATGQGVTIFYVDRLGYYPYIDSITGVTVNGGIPQKISLQDHLDKAKKDITFYMPVDNLGMAVIDWEEWRPTWARNWKPKDVYKNRSIELVQQQNVQLSLTEATEKAKQEFEKAGKDFLVETIKLGKLLRPNHLWGYYLFPDCYNHHYKKPGYNGSCFNVEIKRNDDLSWLWNESTALYPSIYLNTQQSPVAATLYVRNRVREAIRVSKIPDAKSPLPVFAYTRIVFTDQVLKFLSQDELVYTFGETVALGASGIVIWGTLSIMRSMKSCLLLDNYMETILNPYIINVTLAAKMCSQVLCQEQGVCIRKNWNSSDYLHLNPDNFAIQLEKGGKFTVRGKPTLEDLEQFSEKFYCSCYSTLSCKEKADVKDTDAVDVCIADG
modifications: HuPH20 precursor 1-462; Mature HuPH20 36-462
B4: SPAM1-VCIA: C-terminally truncated human PH20, precursor 460 aa (SEQ ID NO:38), mature 425 aa (SEQ ID NO:90) (protein, listed as Homo sapiens)
chain 1: MGVLKFKHIFFRSFVKSSGVSQIVFTFLLIPCCLTLNFRAPPVIPNVPFLWAWNAPSEFCLGKFDEPLDMSLFSFIGSPRINATGQGVTIFYVDRLGYYPYIDSITGVTVNGGIPQKISLQDHLDKAKKDITFYMPVDNLGMAVIDWEEWRPTWARNWKPKDVYKNRSIELVQQQNVQLSLTEATEKAKQEFEKAGKDFLVETIKLGKLLRPNHLWGYYLFPDCYNHHYKKPGYNGSCFNVEIKRNDDLSWLWNESTALYPSIYLNTQQSPVAATLYVRNRVREAIRVSKIPDAKSPLPVFAYTRIVFTDQVLKFLSQDELVYTFGETVALGASGIVIWGTLSIMRSMKSCLLLDNYMETILNPYIINVTLAAKMCSQVLCQEQGVCIRKNWNSSDYLHLNPDNFAIQLEKGGKFTVRGKPTLEDLEQFSEKFYCSCYSTLSCKEKADVKDTDAVDVCIA
chain 2: LNFRAPPVIPNVPFLWAWNAPSEFCLGKFDEPLDMSLFSFIGSPRINATGQGVTIFYVDRLGYYPYIDSITGVTVNGGIPQKISLQDHLDKAKKDITFYMPVDNLGMAVIDWEEWRPTWARNWKPKDVYKNRSIELVQQQNVQLSLTEATEKAKQEFEKAGKDFLVETIKLGKLLRPNHLWGYYLFPDCYNHHYKKPGYNGSCFNVEIKRNDDLSWLWNESTALYPSIYLNTQQSPVAATLYVRNRVREAIRVSKIPDAKSPLPVFAYTRIVFTDQVLKFLSQDELVYTFGETVALGASGIVIWGTLSIMRSMKSCLLLDNYMETILNPYIINVTLAAKMCSQVLCQEQGVCIRKNWNSSDYLHLNPDNFAIQLEKGGKFTVRGKPTLEDLEQFSEKFYCSCYSTLSCKEKADVKDTDAVDVCIA
modifications: HuPH20 precursor 1-460; Mature HuPH20 36-460
B5: SPAM1-VDVC: C-terminally truncated human PH20, precursor 458 aa (SEQ ID NO:39), mature 423 aa (SEQ ID NO:91) (protein, listed as Homo sapiens)
chain 1: MGVLKFKHIFFRSFVKSSGVSQIVFTFLLIPCCLTLNFRAPPVIPNVPFLWAWNAPSEFCLGKFDEPLDMSLFSFIGSPRINATGQGVTIFYVDRLGYYPYIDSITGVTVNGGIPQKISLQDHLDKAKKDITFYMPVDNLGMAVIDWEEWRPTWARNWKPKDVYKNRSIELVQQQNVQLSLTEATEKAKQEFEKAGKDFLVETIKLGKLLRPNHLWGYYLFPDCYNHHYKKPGYNGSCFNVEIKRNDDLSWLWNESTALYPSIYLNTQQSPVAATLYVRNRVREAIRVSKIPDAKSPLPVFAYTRIVFTDQVLKFLSQDELVYTFGETVALGASGIVIWGTLSIMRSMKSCLLLDNYMETILNPYIINVTLAAKMCSQVLCQEQGVCIRKNWNSSDYLHLNPDNFAIQLEKGGKFTVRGKPTLEDLEQFSEKFYCSCYSTLSCKEKADVKDTDAVDVC
chain 2: LNFRAPPVIPNVPFLWAWNAPSEFCLGKFDEPLDMSLFSFIGSPRINATGQGVTIFYVDRLGYYPYIDSITGVTVNGGIPQKISLQDHLDKAKKDITFYMPVDNLGMAVIDWEEWRPTWARNWKPKDVYKNRSIELVQQQNVQLSLTEATEKAKQEFEKAGKDFLVETIKLGKLLRPNHLWGYYLFPDCYNHHYKKPGYNGSCFNVEIKRNDDLSWLWNESTALYPSIYLNTQQSPVAATLYVRNRVREAIRVSKIPDAKSPLPVFAYTRIVFTDQVLKFLSQDELVYTFGETVALGASGIVIWGTLSIMRSMKSCLLLDNYMETILNPYIINVTLAAKMCSQVLCQEQGVCIRKNWNSSDYLHLNPDNFAIQLEKGGKFTVRGKPTLEDLEQFSEKFYCSCYSTLSCKEKADVKDTDAVDVC
modifications: HuPH20 precursor 1-458; Mature HuPH20 36-458

Each molecule was assayed on CHO-S cells (assay: Western blot analysis of PH20 expression in media and cells after transient expression). Settings: band at approximately 66 kDa.
Format: cell-based, Chinese Hamster
Experimental: The mutant PH20-HZ24 plasmids generated in Example 1 were transiently […] into CHO—S cells (derived from Chinese Hamster Ovary CHO K1 cells) using GeneJuice® (Novagen) according to the manufacturer's instructions. In short, the CHO—S cells were grown in CD CHO medium supplemented with L-glutamine. Prior to transfection, the CHO—S cells were plated in 6-well plates, with approximately 5×10^5 cells per well, and grown overnight at 37° C. with 5% CO2. The medium was then removed and the CHO—S cells were washed 2 times with 1 mL serum-free medium. GeneJuice® was mixed with serum-free media followed by the addition of 2 μg mutant-HZ24 DNA. After incubating at room temperature for 5-15 minutes, the GeneJuice®/DNA mixture was added dropwise to an individual well containing the washed CHO—S cells. After 4 hours, the medium was replaced with 1 mL CD-CHO medium supplemented with L-glutamine and the cells were incubated for 72 hours at 37° C. with 5% CO2. Following expression, the media and cells were harvested separately.
The mutant PH20-HZ24 plasmids generated in Example 1 were transiently […] into CHO—S cells using GeneJuice® (Novagen) according to the manufacturer's instructions. […]
In this example, following transient expression, as described in Example 2 above, the media and cells were harvested separately and analyzed for PH20 expression and solublility by Western blot analysis. Solubility of the C-terminus truncation mutants was determined by examining whether the expressed protein was present in the growth media or in the cells. […] Cells expressing these mutants were treated with phosphoinositol-phospholipase C (PI-PLC), which cleaves the GPI-anchor allowing the release of soluble protein into the media, and the presence of PH20 in the resulting media and cells was determined by Western blot analysis.
Non-reduced samples were run on a 4-20% Tris-Glycine gel and transferred to PVDF membrane using iBlot (Invitrogen). For the Western blot, rabbit anti-PH20 IgG (0.5 μg/mL) was used as the primary antibody and HRP-conjugated goat anti-rabbit IgG (0.1 ng/mL, Cat#DC03L, EMD) was used as the secondary antibody. Evidence of expression is determined by a band at approximately 66 kDa, corresponding to recombinant human PH20 hyaluronidase.
B1 was tested, and the “Protein Expression” value was “YES”. For B2, the “Protein Expression” value was “YES”. For B3, the “Protein Expression” value was “YES”. With B4 the “Protein Expression” value was “YES”. B5 was tested, and the “Protein Expression” value was “YES”.
